Source: PubChem BioAssay AID1159578 (Peter MacCallum Cancer Centre, 2015)
Screen: 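siRNA pools altering how lymphatic endothelial cells close a scratch wound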 (primary screen). System: human lymphatic endothelial cells. Reagents: siRNA pool against human genes, 40 nM. Duration: 48 h after transfection. Read-out: 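High-content imaging of dye-stained cells in a scratch assay measures filled wound area and nuclei per well; duplicate means given as ratio to mock and robust z-score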. Scale: migration robust z-score: higher = faster migration into the scratch; migration relative to mock: higher = more scratch area covered than mock; nuclei per well: higher = more cells in the well. Call rule: 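Migration changed when robust z exceeds 2 or falls below -2 and mean nuclei number is at least 3300; otherwise not called changed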. Calls: active = migration changed; inactive = no migration change, or too few cells.
Here is an unselected part of about 18,000 deposited reagents. Of all reagents, about 1,030 (5.7%) got an active call. 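Inactive calls also include pools with fewer than 3300 nuclei, whose migration was not assessed.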 Raw values vary from plate to plate and are shown uncorrected. Reagents against one gene are numbered here.

gene knocked down | reagent | migration robust z-score | migration class with cell-count check | migration relative to mock | nuclei per well, duplicate mean | activity call
TIGAR (TP53 induced glycolysis regulatory phosphatase) | 1 | 1.61 | migration z between -2 and 2; enough cells | 1.12 | 6956 | inactive
WBP1 (WW domain binding protein 1) | 1 | -0.44 | migration z between -2 and 2; enough cells | 0.77 | 4832 | inactive
MRM3 (mitochondrial rRNA methyltransferase 3) | 1 | 0.39 | migration z between -2 and 2; enough cells | 0.88 | 6112 | inactive
PDE5A (phosphodiesterase 5A) | 1 | -0.89 | migration z between -2 and 2; enough cells | 0.66 | 5831 | inactive
CCL26 (C-C motif chemokine ligand 26) | 1 | 1.32 | migration z between -2 and 2; enough cells | 1.23 | 4864 | inactive
BRF1 (BRF1 general transcription factor IIIB subunit) | 1 | 1.42 | migration z between -2 and 2; enough cells | 1.08 | 5336 | inactive
CHEK2 (checkpoint kinase 2) | 1 | 0.34 | migration z between -2 and 2; enough cells | 0.87 | 6341 | inactive
FN3KRP (fructosamine 3 kinase related protein) | 1 | -4.57 | under 3300 nuclei; migration not judged | -0.08 | 2086 | inactive
ELMOD1 (ELMO domain containing 1) | 1 | -0.46 | migration z between -2 and 2; enough cells | 0.76 | 5436 | inactive
ELMOD1 (ELMO domain containing 1) | 2 | -0.11 | migration z between -2 and 2; enough cells | 0.86 | 5459 | inactive
PRELID3B (PRELI domain containing 3B) | 1 | -4.13 | under 3300 nuclei; migration not judged | -0.16 | 2460 | inactive
OR2T11 (olfactory receptor family 2 subfamily T member 11) | 1 | 0.29 | migration z between -2 and 2; enough cells | 0.96 | 6020 | inactive
ADGRG1 (adhesion G protein-coupled receptor G1) | 1 | 0.39 | migration z between -2 and 2; enough cells | 0.88 | 7730 | inactive
CT47A8 (cancer/testis antigen family 47 member A8) | 1 | -0.35 | migration z between -2 and 2; enough cells | 0.8 | 5760 | inactive
KLHL27 (kelch like family member 27) | 1 | 1.03 | migration z between -2 and 2; enough cells | 1.16 | 5170 | inactive
GGT7 (gamma-glutamyltransferase 7) | 1 | 0.21 | migration z between -2 and 2; enough cells | 0.84 | 4896 | inactive
DEFB132 (defensin beta 132) | 1 | 1.23 | migration z between -2 and 2; enough cells | 1.2 | 6110 | inactive
UBE2Q1 (ubiquitin conjugating enzyme E2 Q1) | 1 | -0.11 | migration z between -2 and 2; enough cells | 0.78 | 6708 | inactive
MCM5 (minichromosome maintenance complex component 5) | 1 | -1.22 | migration z between -2 and 2; enough cells | 0.57 | 4511 | inactive
OR7A5 (olfactory receptor family 7 subfamily A member 5) | 1 | -1.68 | under 3300 nuclei; migration not judged | 0.45 | 3238 | inactive
LINC00452 (long independently transcribed non-coding RNA 452) | 1 | 0.86 | migration z between -2 and 2; enough cells | 1.11 | 5941 | inactive
CYB5D1 (cytochrome b5 domain containing 1) | 1 | -1.76 | migration z between -2 and 2; enough cells | 0.43 | 5708 | inactive
INO80B (INO80 complex subunit B) | 1 | -1.48 | migration z between -2 and 2; enough cells | 0.5 | 5700 | inactive
APBA3 (amyloid beta precursor protein binding family A member 3) | 1 | -4.75 | migration z below -2; enough cells | -0.11 | 3670 | active
TAS2R5 (taste 2 receptor member 5) | 1 | 2.44 | migration z above 2; enough cells | 1.52 | 6924 | active
HELB (DNA helicase B) | 1 | 1.14 | migration z between -2 and 2; enough cells | 1.02 | 6272 | inactive
ZCCHC8 (zinc finger CCHC-type containing 8) | 1 | 0.48 | migration z between -2 and 2; enough cells | 1.01 | 7145 | inactive
FASTKD5 (FASTK mitochondrial RNA regulator 5) | 1 | -0.26 | migration z between -2 and 2; enough cells | 0.82 | 5918 | inactive
LPL (lipoprotein lipase) | 1 | -2.23 | migration z below -2; enough cells | 0.38 | 5530 | active
C11orf71 (chromosome 11 open reading frame 71) | 1 | -1.25 | migration z between -2 and 2; enough cells | 0.56 | 6143 | inactive
BLCAP (BLCAP apoptosis inducing factor) | 1 | 0.28 | migration z between -2 and 2; enough cells | 0.96 | 5126 | inactive
C2 (complement C2) | 1 | -1.98 | migration z between -2 and 2; enough cells | 0.43 | 4182 | inactive
ASAH2 (N-acylsphingosine amidohydrolase 2) | 1 | -0.57 | migration z between -2 and 2; enough cells | 0.7 | 5102 | inactive
EID2 (EP300 interacting inhibitor of differentiation 2) | 1 | 0.16 | migration z between -2 and 2; enough cells | 0.83 | 5464 | inactive
LOC652591 (retired record) | 1 | 1.74 | migration z between -2 and 2; enough cells | 1.14 | 4970 | inactive
CFAP45 (cilia and flagella associated protein 45) | 1 | -1.36 | migration z between -2 and 2; enough cells | 0.54 | 4402 | inactive
CHCHD3 (coiled-coil-helix-coiled-coil-helix domain containing 3) | 1 | 3.05 | migration z above 2; enough cells | 1.67 | 6480 | active
RNF112 (ring finger protein 112) | 1 | 0.24 | migration z between -2 and 2; enough cells | 0.85 | 5204 | inactive
ADGRA1 (adhesion G protein-coupled receptor A1) | 1 | -0.1 | migration z between -2 and 2; enough cells | 0.78 | 6333 | inactive
LCK (LCK proto-oncogene, Src family tyrosine kinase) | 1 | -0.7 | migration z between -2 and 2; enough cells | 0.67 | 5824 | inactive
ROR1 (ROR family WNT receptor 1) | 1 | -0.24 | migration z between -2 and 2; enough cells | 0.76 | 4974 | inactive
TSPAN5 (tetraspanin 5) | 1 | -1.12 | migration z between -2 and 2; enough cells | 0.6 | 5052 | inactive
CCL4 (C-C motif chemokine ligand 4) | 1 | 0.58 | migration z between -2 and 2; enough cells | 1.04 | 5602 | inactive
OSMR (oncostatin M receptor) | 1 | 0.32 | migration z between -2 and 2; enough cells | 0.86 | 6464 | inactive
FBXL16 (F-box and leucine rich repeat protein 16) | 1 | -1.22 | migration z between -2 and 2; enough cells | 0.57 | 5417 | inactive
MATN4 (matrilin 4) | 1 | -1.03 | migration z between -2 and 2; enough cells | 0.62 | 4914 | inactive
RASD2 (RASD family member 2) | 1 | -0.86 | migration z between -2 and 2; enough cells | 0.66 | 4174 | inactive
GOLGA6B (golgin A6 family member B) | 1 | 1.71 | migration z between -2 and 2; enough cells | 1.33 | 6044 | inactive
CFAP65 (cilia and flagella associated protein 65) | 1 | 0.42 | migration z between -2 and 2; enough cells | 1 | 7370 | inactive
KLHL17 (kelch like family member 17) | 1 | 1.34 | migration z between -2 and 2; enough cells | 1.23 | 5935 | inactive
LRRC55 (leucine rich repeat containing 55) | 1 | -1.34 | migration z between -2 and 2; enough cells | 0.54 | 5001 | inactive
SP3 (Sp3 transcription factor) | 1 | 0.36 | migration z between -2 and 2; enough cells | 0.88 | 5518 | inactive
FITM2 (fat storage inducing transmembrane protein 2) | 1 | 1.68 | migration z between -2 and 2; enough cells | 1.32 | 5402 | inactive
WDR44 (WD repeat domain 44) | 1 | -0.22 | migration z between -2 and 2; enough cells | 0.83 | 4752 | inactive
GNG3 (G protein subunit gamma 3) | 1 | -0.04 | migration z between -2 and 2; enough cells | 0.88 | 5119 | inactive
TAF9B (TATA-box binding protein associated factor 9b) | 1 | 0.26 | migration z between -2 and 2; enough cells | 0.86 | 4657 | inactive
PRORSD1P | 1 | -0.73 | migration z between -2 and 2; enough cells | 0.7 | 5800 | inactive

Hits, of those listed so far:
gene knocked down | reagent | migration robust z-score | migration class with cell-count check | migration relative to mock | nuclei per well, duplicate mean | activity call
APBA3 (amyloid beta precursor protein binding family A member 3) | 1 | -4.75 | migration z below -2; enough cells | -0.11 | 3670 | active
TAS2R5 (taste 2 receptor member 5) | 1 | 2.44 | migration z above 2; enough cells | 1.52 | 6924 | active
LPL (lipoprotein lipase) | 1 | -2.23 | migration z below -2; enough cells | 0.38 | 5530 | active
CHCHD3 (coiled-coil-helix-coiled-coil-helix domain containing 3) | 1 | 3.05 | migration z above 2; enough cells | 1.67 | 6480 | active
